Test results as given in PubChem BioAssay AID540276 (National Center for Advancing Translational Sciences (NCATS), 2011).
“And” between values parts separate entries of the source, which are not always exact repeats. Equal entries are not always repeated. The whole screen tested about 300,000 compounds, of which about 5,400 (1.8%) were called active. This list was built around the results that the source calls inconclusive (neither active nor inactive); the mix of calls is not that of the screen. Calls come from the whole dose curve; tested in HEK293 cells. A potency beside an inconclusive call is a rough fit, not a confirmed value.

assay: qHTS for inhibitors of binding or entry into cells for Marburg Virus; conditions: Marburg virus pseudotyped entry inhibition, cell reporter; activity change, negative = inhibition: at 37.8 µM (top of the series) unless noted
% is set by controls: 0 for no effect and ±100 for the full control effect; potency is the fitted concentration of half-maximal effect.

Question: With `CCOC(=O)C1NNN2C3CCCCC3C(N3CCN(C4CCCCC4)CC3)NC12` (stereo not drawn) as the molecule, how does the “activity change, negative = inhibition” value read?
Answer: inactive: 4.82% [at 46.1 µM]

Question: For `COC(=O)CC=C1c2ccccc2[C@@H](NC(=O)OC)[C@@H]1C`, which “activity change, negative = inhibition” value is on record?
Answer: inactive: 20% [at 14.2 µM]

Question: For `CCOc1ccc(-n2c(-c3ccccc3)c[n+]3c2CCC3)cc1`, which Potency is on record?
Answer: inconclusive: 6.31 µM [inhibitor, full curve, poor fit]

Question: For `Cc1[nH]c2ccccc2c1N=Nc1ccccc1F`, which Potency is on record?
Answer: inconclusive: 12.6 µM [activator, partial curve, poor fit]

Question: Which Potency does the source give for `O=C(/C(=N/O)n1cncn1)c1ccccc1Cl` here?
Answer: inconclusive: 5.62 µM [inhibitor, single point]

Question: With `O=[N+]([O-])c1cccc2[nH]ncc12` as the molecule, how does the Potency read?
Answer: inconclusive: 11.2 µM [activator, partial curve, poor fit]

Question: For `O=C(NNS(=O)(=O)c1ccc([N+](=O)[O-])cc1)c1ccc2ccccc2c1O`, which “activity change, negative = inhibition” value is on record?
Answer: inactive: 12.4% [at 46.1 µM]

Question: Which Potency does the source give for `CCCN(CC(=O)Nc1ccc(Cl)cc1Cl)C(=O)/C=C/c1cccc([N+](=O)[O-])c1` here?
Answer: inconclusive: 28.2 µM [inhibitor, partial curve, poor fit]

Question: With `Cc1noc(C)c1COc1cccc(C(=O)OCC(=O)N2CC(=O)Nc3ccccc32)c1` as the molecule, how does the Potency read?
Answer: inconclusive: 0.184 µM [inhibitor, full curve, poor fit]

Question: Which “activity change, negative = inhibition” value does the source give for `COC(=O)c1ccc(OCC(O)CNC2CCCC2)cc1` (stereo not drawn) here?
Answer: inactive: -0.19% [at 46.1 µM]

Question: With `N/C(=N\OC(=O)c1ccccc1Cl)c1cccnc1` as the molecule, how does the Potency read?
Answer: inconclusive: 4.47 µM [activator, partial curve, poor fit]

Question: Which Potency does the source give for `COc1ccccc1N(CCOc1ccccc1)S(=O)(=O)c1ccccc1` here?
Answer: inconclusive: 35.5 µM [inhibitor, single point]

Question: Which Potency does the source give for `Cc1ccc(NC2=NC(c3ccc(F)cc3)n3c(nc(C)cc3=O)N2)c(C)c1` (stereo not drawn) here?
Answer: inconclusive: 35.5 µM [inhibitor, partial curve, poor fit]

Question: Which Potency does the source give for `COc1ccc(-n2nc(C#N)c(Cl)cc2=O)cc1` here?
Answer: active: 3.16 µM

Question: For `CCn1c(CNC(=O)c2cccc(C)c2)nnc1SCC(=O)N1CCOCC1`, which Potency is on record?
Answer: inconclusive: 8.91 µM [activator, partial curve, poor fit]

Question: For `O=C(NCCc1ccccc1)C(NS(=O)(=O)c1cccc2nsnc12)c1ccccc1` (stereo not drawn), which “activity change, negative = inhibition” value is on record?
Answer: inactive: -8.72%

Question: For `O=C1Cc2ccccc2Sc2cc(OCCCN3CCCCC3)ccc21`, which Potency is on record?
Answer: inconclusive: 18.4 µM [inhibitor, single point]

Question: Which Potency does the source give for `Nc1nc(SCc2nc(-c3ccccc3)no2)[nH]c(=O)c1-c1ccccc1` here?
Answer: inconclusive: 6.51 µM [activator, single point]

Question: For `NS(=O)(=O)c1ccc(CCNC(=S)Nc2ccccc2)cc1`, which “activity change, negative = inhibition” value is on record?
Answer: inactive: 14.1%

Question: Which “activity change, negative = inhibition” value does the source give for `Cc1ccc(S(=O)(=O)N2CCCC2C(=O)NC2CCCCC2)cc1` (stereo not drawn) here?
Answer: inactive: 0.19%

Question: Which Potency does the source give for `Cc1c(NC(=O)C2CCCN2S(=O)(=O)c2ccc(Cl)cc2)c(=O)n(-c2ccccc2)n1C` (stereo not drawn) here?
Answer: inactive

Question: For `COc1cc(C)ccc1OCCOCCOc1ccccc1[N+](=O)[O-]`, which “activity change, negative = inhibition” value is on record?
Answer: inactive: 5.49%

Question: With `Cc1ccccc1NS(=O)(=O)c1c(C(=O)N2CCCCCC2)c(C)n(C)c1C` as the molecule, how does the Potency read?
Answer: inconclusive: 2.51 µM [inhibitor, full curve, poor fit]

Question: Which “activity change, negative = inhibition” value does the source give for `CC1(c2ccc3ccccc3c2)NC(=O)N(CC(=O)O)C1=O` (stereo not drawn) here?
Answer: inactive: 1.18% [at 46.1 µM]

Question: For `CC1CCc2sc(C(=O)NNC(=S)NC3CC3)cc2C1` (stereo not drawn), which “activity change, negative = inhibition” value is on record?
Answer: inactive: 7.57% [at 46.1 µM]

Question: For `Nc1cc(C(=O)O)ccc1Sc1ccccc1C(=O)O`, which “activity change, negative = inhibition” value is on record?
Answer: inactive: -1.92%

Question: For `Cc1ccccc1C(=O)NC(CC(C)C)C(=O)NCC(C)(C)N1CCOCC1` (stereo not drawn), which “activity change, negative = inhibition” value is on record?
Answer: inactive: -4.71%

Question: With `Cc1cc(C)c[n+](-c2nc3ccccc3nc2[N-]S(=O)(=O)c2cccs2)c1` as the molecule, how does the Potency read?
Answer: inconclusive: 35.5 µM [activator, single point]

Question: For `COc1cc(C2c3cc4c(cc3OC(Nc3ccc(C(=O)O)cc3)C2C)OCO4)cc(OC)c1OC` (stereo not drawn), which Potency is on record?
Answer: inconclusive: 2.51 µM [inhibitor, partial curve, poor fit]

Question: With `COc1ccc(CN(C)C(=O)c2ccccc2Sc2ccccc2C#N)c(OC)c1` as the molecule, how does the Potency read?
Answer: inconclusive: 35.5 µM [inhibitor, single point]

Question: Which Potency does the source give for `CC(=O)c1cccc(N2Cc3ccccc3C2=NC(=O)CCl)c1` here?
Answer: inconclusive: 1.41 µM [inhibitor, partial curve, poor fit]

Question: Which Potency does the source give for `CCCCCn1nc(C(=O)OCc2nc(N)nc(Nc3ccccc3)n2)c2ccccc2c1=O` here?
Answer: inconclusive: 11.2 µM [inhibitor, partial curve, poor fit]

Question: Which Potency does the source give for `N#Cc1nc(-c2ccc(OCc3ccccc3)cc2)oc1NCCCn1ccnc1` here?
Answer: inconclusive: 31.6 µM [activator, single point]

Question: For `Cc1ccc(C)c(Cc2c(C)nc3c(C(=O)N4CCOCC4)cnn3c2C)c1`, which Potency is on record?
Answer: inconclusive: 18.3 µM [inhibitor, single point]

Question: With `CC1(C)CC(=O)C2=C(C1)N(CCN1CCOCC1)C1=C(C(=O)CC(C)(C)C1)C2c1cccc(Cl)c1` as the molecule, how does the Potency read?
Answer: inconclusive: 31.6 µM [inhibitor, single point]

Question: Which Potency does the source give for `CC1Cc2cc(-c3csc(NC(=O)Cc4cccs4)n3)ccc2N1S(C)(=O)=O` (stereo not drawn) here?
Answer: inactive and inconclusive: 8.91 µM [inhibitor, partial curve, poor fit]

Question: For `COc1ccc(CN=C2NC(=O)CC(C(=O)Nc3ccc(F)cc3)S2)cc1` (stereo not drawn), which “activity change, negative = inhibition” value is on record?
Answer: inactive: -6.16%

Question: For `COc1ccc(N=Nc2ccc(CO)cc2)cc1`, which Potency is on record?
Answer: inconclusive: 2.82 µM [inhibitor, full curve, poor fit]

Question: With `CN1C(=O)C(CC(=O)Nc2ccc(F)cc2)N(Cc2cccs2)C1=S` (stereo not drawn) as the molecule, how does the Potency read?
Answer: inconclusive: 3.16 µM [inhibitor, full curve, poor fit]

Question: With `COc1ccc(NC(=O)CCS(=O)(=O)c2nc(-c3ccc4c(c3)OCO4)cc(C(F)(F)F)n2)cc1` as the molecule, how does the “activity change, negative = inhibition” value read?
Answer: inactive: -17.1% [at 46.1 µM]

Question: Which Potency does the source give for `Cc1ccc(S(=O)(=O)N2CCN(c3nc(C(C)C)c4c(c3C#N)CC(C)(C)OC4)CC2)cc1` here?
Answer: inconclusive: 4.11 µM [inhibitor, partial curve, poor fit]

Question: Which Potency does the source give for `CC(C)N1CCN(Cc2cccc(-c3ccco3)c2)CC1CCO` (stereo not drawn) here?
Answer: inconclusive: 25.1 µM [inhibitor, single point]

Question: For `CCc1cc2c(C)ccc(C)c2nc1SCC(=O)Nc1c[nH]c(=O)[nH]c1=O`, which Potency is on record?
Answer: inconclusive: 3.16 µM [inhibitor, single point]

Question: With `CCN(CC)CCNc1ccc(CO)c2sc3ccccc3c(=O)c12` as the molecule, how does the Potency read?
Answer: active: 11.2 µM

Question: With `COc1cc(/C=N/NC(=O)c2ccccc2)ccc1OS(=O)(=O)c1ccccc1` as the molecule, how does the Potency read?
Answer: active: 9.2 µM

Question: For `O=C(CCc1ccccc1)N=C1SC2CS(=O)(=O)CC2N1c1ccccc1F` (stereo not drawn), which “activity change, negative = inhibition” value is on record?
Answer: inactive: -0.963% [at 46.1 µM]

Question: Which Potency does the source give for `Cc1ccc(SCCn2nc(C(=O)O)c3ccccc3c2=O)cc1` here?
Answer: inconclusive: 25.1 µM [inhibitor, single point]

Question: For `Cc1cccc(OCC(=O)NCc2n[nH]c(=O)c3ccccc23)c1`, which Potency is on record?
Answer: inconclusive: 5.62 µM [activator, single point]

Question: For `Cn1c(-c2ccccc2)c(/C=N/NC(=O)c2cccnc2)c2ccccc21`, which Potency is on record?
Answer: inconclusive: 15.8 µM [inhibitor, single point]

Question: With `Cc1cccc(N2CCN(C(=O)C3CCN(C(=O)c4cc5sccc5n4C)CC3)CC2)c1C` as the molecule, how does the “activity change, negative = inhibition” value read?
Answer: inactive: -19.1% [at 46.1 µM]

Question: Which Potency does the source give for `C=C(C)CSc1nc(C)c(Cc2ccccc2)c(=O)[nH]1` here?
Answer: inconclusive: 7.3 µM [inhibitor, single point]

Question: For `COc1ccc(NC(=O)CSc2nnc(NC(=O)c3ccco3)s2)cc1OC`, which “activity change, negative = inhibition” value is on record?
Answer: inactive: -1.93%

Question: For `COc1cc(/C=C/C(=O)c2c(O)ccc3c(C)cc(=O)oc23)ccc1O`, which Potency is on record?
Answer: inconclusive: 35.5 µM [inhibitor, single point]

Question: Which Potency does the source give for `COc1ccc(-n2c(Cc3cccn3C)nnc2SCC(=O)Nc2ccc(F)cc2F)cc1` here?
Answer: inactive

Question: With `COC(=O)C1=C(C(=O)OC)[C@@H]2N(Cc3ccccc3)c3ccccc3[C@@]23C[C@@H](C(=O)OC)N(C(=O)c2cccs2)C3=N1` as the molecule, how does the Potency read?
Answer: inconclusive: 0.473 µM [inhibitor, partial curve, poor fit]

Question: For `O=S(=O)(NCC1CCN(Cc2ccccc2)CC1)c1ccccc1C(F)(F)F`, which Potency is on record?
Answer: inconclusive: 35.5 µM [inhibitor, single point]

Question: With `CN(C)c1ncnc2sc(-c3ccccc3)cc12` as the molecule, how does the Potency read?
Answer: inconclusive: 3.16 µM [activator, single point]

Question: For `CN(C)CCSc1nc(O)c(-c2ccccc2)c(=O)n1-c1ccccc1`, which “activity change, negative = inhibition” value is on record?
Answer: inactive: 1.25%

Question: With `COc1ccc([C@H]2C[C@@H](O)[C@H](n3cc(-c4ccc(F)cc4)nn3)CN2C(=O)C2CCCCC2)cc1` as the molecule, how does the Potency read?
Answer: inconclusive: 4.99 µM [inhibitor, partial curve, poor fit]

Question: For `COc1ccc(CNC(=O)C(=O)NCCCn2ccnc2)cc1`, which Potency is on record?
Answer: inconclusive: 35.5 µM [inhibitor, single point]

Question: With `Cc1ccc(NCc2nc3ccccc3n2C)c(C)c1` as the molecule, how does the Potency read?
Answer: active: 2.51 µM

Question: With `Cc1ccc(C)c(N(CC(=O)NCc2ccc3c(c2)OCO3)C(=O)CCC(=O)Nc2ccccn2)c1` as the molecule, how does the Potency read?
Answer: inconclusive: 35.5 µM [inhibitor, single point]

Question: With `Cc1nc2nc(CCc3ccccc3)nn2c(C)c1Cl` as the molecule, how does the Potency read?
Answer: inconclusive: 29.1 µM [activator, single point]

Question: Which Potency does the source give for `CCOc1ccc(CCNC(=O)c2ccc(C)c(S(=O)(=O)N3CCOCC3)c2)cc1OCC` here?
Answer: inconclusive: 15.8 µM [inhibitor, single point]

Question: With `CCOc1ccc(-c2nc(C)c(C(C)=O)n2O)cc1` as the molecule, how does the “activity change, negative = inhibition” value read?
Answer: inactive: 18%

Question: For `Cc1c(C(=O)N2CCCCC2)c(S(=O)(=O)NCc2ccc(N(C)C)cc2)c(C)n1C`, which Potency is on record?
Answer: inactive

Question: With `CCOc1ccc(C(=O)c2cn(CC(=O)Nc3cccc(OC)c3)c3cc4c(cc3c2=O)OCCO4)cc1` as the molecule, how does the Potency read?
Answer: inconclusive: 10 µM [inhibitor, partial curve, poor fit]
